Values of other authors in article PMC10878854, “Identification, structural characterization, and molecular dynamic simulation of ACE inhibitory peptides in whey hydrolysates from Chinese Rushan cheese by-product” (Food Chemistry: X, 2024).
Converted amounts (≈) assume the structure as drawn. Structures were worked out from names or drawings and are uncertain.

Protein sequences, listed by entry. Tags and fused reporters are not part of them. Residues count along the entry.
UniProt P12822, 34-1310 limits assumed: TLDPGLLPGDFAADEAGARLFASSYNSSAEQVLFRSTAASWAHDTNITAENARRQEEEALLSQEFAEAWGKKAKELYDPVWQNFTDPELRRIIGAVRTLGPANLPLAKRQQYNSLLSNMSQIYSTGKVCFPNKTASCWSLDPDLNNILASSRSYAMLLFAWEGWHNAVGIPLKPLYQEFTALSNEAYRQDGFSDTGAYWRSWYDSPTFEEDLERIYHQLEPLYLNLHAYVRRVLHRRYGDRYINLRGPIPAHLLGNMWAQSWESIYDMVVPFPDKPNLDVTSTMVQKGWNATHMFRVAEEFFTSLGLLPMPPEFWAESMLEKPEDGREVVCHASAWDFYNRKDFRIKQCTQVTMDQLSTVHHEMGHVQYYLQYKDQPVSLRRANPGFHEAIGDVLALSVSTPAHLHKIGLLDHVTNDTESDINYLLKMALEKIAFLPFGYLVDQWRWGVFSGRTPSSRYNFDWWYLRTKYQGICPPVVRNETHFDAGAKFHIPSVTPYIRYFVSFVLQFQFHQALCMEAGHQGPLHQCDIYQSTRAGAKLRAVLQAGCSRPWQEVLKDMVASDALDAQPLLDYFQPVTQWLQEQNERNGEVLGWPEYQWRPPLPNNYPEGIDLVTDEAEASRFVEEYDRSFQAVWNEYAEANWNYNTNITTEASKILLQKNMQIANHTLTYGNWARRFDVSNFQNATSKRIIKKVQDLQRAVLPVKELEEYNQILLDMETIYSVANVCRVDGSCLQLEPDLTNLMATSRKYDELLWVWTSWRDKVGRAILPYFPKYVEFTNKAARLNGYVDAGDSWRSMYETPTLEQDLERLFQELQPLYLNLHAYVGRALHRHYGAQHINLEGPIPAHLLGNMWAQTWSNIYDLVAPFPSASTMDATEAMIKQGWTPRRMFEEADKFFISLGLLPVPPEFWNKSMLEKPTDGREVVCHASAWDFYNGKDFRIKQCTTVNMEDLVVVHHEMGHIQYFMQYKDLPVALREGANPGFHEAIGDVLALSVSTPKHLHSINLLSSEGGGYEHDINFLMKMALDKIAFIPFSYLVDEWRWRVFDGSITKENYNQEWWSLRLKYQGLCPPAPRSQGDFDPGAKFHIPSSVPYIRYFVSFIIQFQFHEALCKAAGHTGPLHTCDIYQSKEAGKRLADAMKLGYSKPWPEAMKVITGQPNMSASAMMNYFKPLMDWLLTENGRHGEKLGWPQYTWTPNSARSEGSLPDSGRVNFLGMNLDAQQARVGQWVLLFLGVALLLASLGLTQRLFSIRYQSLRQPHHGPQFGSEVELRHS

Target: ACE (Oryctolagus cuniculus, UniProt P12822)
Conditions: cited from earlier work

Row | SMILES | IC50 (read-out: IC50 (ACE inhibitory activity), α-lactalbumin derived peptide, ref Hou et al., 2021) | IC50 (ACE inhibitory activity) (dipeptide from whey proteins fermented with Lactobacillus plantarum QS670, ref Xia et al., 2020)
1 | O=C(O)CC[C@H](NC(=O)[C@@H]1CCCN1)C(=O)N[C@@H](Cc1c[nH]c2ccccc12)C(=O)O | 3.13 mM | –
2 | C[C@H](NC(=O)CN)C(=O)O | – | 1220 µg/mL (≈ 8.35 mM)
